From article PMC6925144, “A prospective compound screening contest identified broader inhibitors for Sirtuin 1” (Scientific Reports, 2019)
In all, about 3,200 compounds were measured (“TSA(without NAD+) / Primary screening (TSA) / delta Tm (K)”: median about -0.07, highest 2% from about 0.37 on). The list shows a part of the results.

The chains behind the UniProt entries cited, without tags or fusion partners. Residues count along the entry.
UniProt Q96EB6, 2-747 limits assumed: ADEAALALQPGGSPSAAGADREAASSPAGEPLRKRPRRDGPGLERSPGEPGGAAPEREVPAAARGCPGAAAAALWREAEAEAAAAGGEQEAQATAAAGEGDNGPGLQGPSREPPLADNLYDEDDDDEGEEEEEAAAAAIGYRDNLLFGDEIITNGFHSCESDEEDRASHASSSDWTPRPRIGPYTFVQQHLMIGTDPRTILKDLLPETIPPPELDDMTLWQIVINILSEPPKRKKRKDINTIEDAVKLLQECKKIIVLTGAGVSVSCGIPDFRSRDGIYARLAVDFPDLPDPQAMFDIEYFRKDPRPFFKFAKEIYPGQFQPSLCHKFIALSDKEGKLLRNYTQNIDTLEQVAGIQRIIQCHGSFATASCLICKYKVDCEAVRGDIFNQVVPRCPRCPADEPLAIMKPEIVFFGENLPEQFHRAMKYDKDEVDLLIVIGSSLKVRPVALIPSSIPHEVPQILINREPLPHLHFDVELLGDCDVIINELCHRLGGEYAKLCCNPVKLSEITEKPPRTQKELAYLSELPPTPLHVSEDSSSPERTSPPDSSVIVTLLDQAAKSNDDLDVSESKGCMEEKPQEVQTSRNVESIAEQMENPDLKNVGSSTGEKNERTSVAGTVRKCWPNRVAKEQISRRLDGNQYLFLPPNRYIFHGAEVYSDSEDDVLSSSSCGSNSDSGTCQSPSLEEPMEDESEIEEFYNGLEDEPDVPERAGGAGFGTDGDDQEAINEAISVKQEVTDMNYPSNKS

target: NAD-dependent deacetylase Sirtuin 1 (human, UniProt Q96EB6); assay: primary screen, delta tm; design: single well (n = 1); details: 10 µM
In short: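 Thermal shift of Sirtuin 1 measured without NAD+, compound at 10 µM (n = 1); value is ΔTm, with hits defined as ΔTm > 0.45 K or < −1.5 K. Hits retested at 5, 10, 20 µM (n = 4) and counterscreened on bovine carbonic anhydrase and ABL1 SH2 domain.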

Row | Structure (SMILES) | TSA(without NAD+) / Primary screening (TSA) / delta Tm (K)
1 | O=C(/C=C/c1ccc2c(c1)OCCCO2)N1CCN(S(=O)(=O)/C=C/c2ccccc2)CC1 | 0.02 K
2 | Cc1ccc2[nH]c3c(c2c1)CC(=O)CC3 | -0.17 K
3 | COCCCCC(=O)O | -0.28 K
4 | COc1ccc(C2NC(=O)c3ccccc3N2)cc1C (stereo not shown) | -0.21 K
5 | O=C1NC(=O)N(c2ccc3c(c2)OCO3)C1=O | 0.13 K
6 | Cn1c(CCNC(=O)CCc2cccnc2)nc2cc(Cl)ccc21 | -0.02 K
7 | Cc1cc(C=C(C#N)C#N)c(C)n1C1CC1 | -0.18 K
8 | CC1(C)CCC(NC(=O)Cn2c(=O)cnc3ccccc32)c2ccccc21 (stereo not shown) | -0.22 K
9 | O=C(Cn1c(=O)cnc2ccccc21)Nc1ccc(N2CCN(Cc3ccccc3)CC2)cc1 | 0.07 K
10 | Cc1ccc(C2C(C(=O)c3cc4ccccc4o3)=C(O)C(=O)N2CCCN2CCOCC2)cc1 (stereo not shown) | 0.02 K
11 | CC1CC(C)CN(C(=O)COc2ccc3c4c(c(=O)oc3c2)CCC4)C1 (stereo not shown) | 0.03 K
12 | Cc1cnc(C(=O)NC2CCCC(C)C2C)cn1 (stereo not shown) | 0.07 K
13 | CCCC(C)(O)C(=O)O (stereo not shown) | -0.18 K
14 | NC(=O)c1ccc(COC(=O)c2cc(C3CC3)nc3ccccc23)cc1 | -0.23 K
15 | CCOC(=O)C1=C(COC(=O)c2sc3nc(C)cc(C)c3c2-n2cccc2)NC(=O)NC1 | -0.05 K
16 | COCC(C)n1c(SCc2ccc(C(N)=O)cc2)nc2ccccc2c1=O (stereo not shown) | -0.12 K
17 | COc1cc(CN(C)C(=O)c2ccc(-n3cnnn3)cc2)ccc1OCc1ccccc1 | -0.27 K
18 | COc1ccc(C(=O)C2=C(O)C(=O)N(CCCN3CCOCC3)C2c2cccc(OC)c2)cc1 (stereo not shown) | -0.24 K
19 | O=S(=O)(c1ccc(F)c(Cl)c1)N1CCNCC1 | -0.27 K
20 | COc1cccc(C2C(C(=O)c3ccc4c(c3)OCCO4)=C(O)C(=O)N2CCCN2CCOCC2)c1 (stereo not shown) | 0.07 K
21 | Cc1cccc(C(=O)OCc2ccc(C(=O)Nc3ccccc3)cc2)c1 | 0.06 K

Compounds shown so far that have a halogen:
Row | Structure (SMILES) | TSA(without NAD+) / Primary screening (TSA) / delta Tm (K)
6 | Cn1c(CCNC(=O)CCc2cccnc2)nc2cc(Cl)ccc21 | -0.02 K
19 | O=S(=O)(c1ccc(F)c(Cl)c1)N1CCNCC1 | -0.27 K

(next part)

Row | Structure (SMILES) | TSA(without NAD+) / Primary screening (TSA) / delta Tm (K)
22 | O=C(NCc1ccccc1CS(=O)(=O)N1CCOCC1)C1=COCCO1 | -0.08 K
23 | CCC(=O)CCCN1CCC(C(C)O)CC1 (stereo not shown) | -0.15 K
24 | O=C1NC(=S)NC(=O)C1=Cc1cn(-c2ccccc2)nc1-c1cc2ccccc2o1 | 0.36 K
25 | CS(=O)(=O)Cc1ccc(C(=O)NCC2(N3CCCCC3)CCCCC2)cc1 | -0.03 K
26 | Cc1sc2nc(-c3cccnc3)nc(N3CCC(C(N)=O)CC3)c2c1C | 0.25 K
27 | O=C(Nc1cccc(CNC(=O)N2CCC2)c1)c1ccccn1 | -0.07 K
28 | COc1ccc(-c2nnc(S)o2)c(OC)c1 | -0.13 K
29 | O=C(NC1CCCCC1O)c1cc2ccccc2[nH]1 (stereo not shown) | -0.04 K
30 | Cc1cccc(NCCC#N)c1C | -0.32 K
31 | C=CCNc1nnc(SCC(O)COC(c2ccccc2)c2ccccc2C)s1 (stereo not shown) | -0.18 K
32 | Cc1sc(NC(=O)C2CCN(c3ncc(C(F)(F)F)cc3Cl)CC2)c(C(N)=O)c1C | 0.28 K
33 | Cc1cc2cc(NC(=O)Cc3c(C)nc(-c4ccccn4)[nH]c3=O)ccc2[nH]1 | -0.12 K
34 | O=C1/C(=C/c2ccccc2[N+](=O)[O-])Oc2cc(O)ccc21 | -0.22 K
35 | CCN(CC)C(=O)CN1CCCN(CC(=O)Nc2sccc2C(N)=O)CC1 | 0.07 K
36 | COc1ccc(/C=C2/COc3ccc(Br)cc3C2=O)cc1OC(F)F | 0.18 K
37 | CN(Cc1nc2ccccc2s1)C(=O)CSc1nnc(CC2CCS(=O)(=O)C2)o1 (stereo not shown) | -0.13 K
38 | CC(C)C(O)CCN (stereo not shown) | -0.02 K
39 | O=c1[nH]cnc2c1ncn2[C@H]1CC[C@@H](CO)O1 | -0.12 K
40 | COc1cccc(/C=N/c2cccc(C(N)=O)c2)c1O | -0.23 K
41 | Cc1ccc(C2C(C(=O)c3cc4ccccc4o3)=C(O)C(=O)N2CCCN2CCOCC2)o1 (stereo not shown) | 0.02 K
42 | CC1CCN(c2ccc(NC(=O)N(C)Cc3cnccn3)cc2)C1 (stereo not shown) | -0.07 K

Row | Structure (SMILES) | TSA(without NAD+) / Primary screening (TSA) / delta Tm (K)
43 | NC(=O)C1CCN(C(=O)c2cc3ccc(Br)cc3[nH]2)C1 (stereo not shown) | -0.04 K
44 | O=C(CN1CCN(C(=O)c2ccccc2COc2ccccc2)CC1)Nc1ccccc1Cl | -0.13 K
45 | CC1OC1P(=O)([O-])[O-] (stereo not shown) | -0.15 K
46 | NC(=O)c1cc(NC(=O)CN2CC=C(c3ccc(O)cc3)CC2)cc(C(N)=O)c1 | 0.15 K
47 | COc1ccc(C(=O)C2=C(O)C(=O)N(CCCN3CCOCC3)C2c2ccc(C)cc2)cc1 (stereo not shown) | -0.01 K
48 | COc1ccccc1C(C)Nc1cc(=O)n2ccccc2n1 (stereo not shown) | 0.07 K
49 | Cc1ccc(-c2nc(C(=O)NCCc3nnc4ccccn34)cs2)o1 | -0.03 K
50 | O=C(Nc1cc(S(=O)(=O)N2CCOCC2)ccc1Oc1ccc(F)cc1)C1=COCCO1 | -0.12 K
51 | CC1CCN(CCCNC(=O)C2=NN(c3ccc(F)cc3)C(C(N)=O)C2)CC1 (stereo not shown) | -0.07 K
52 | CCC(N)C(=O)NC (stereo not shown) | -0.12 K
53 | COc1ccc(C23CC4CC(CC(C(=O)NCc5ccc6c(c5)OCO6)(C4)C2)C3)cc1 | -0.11 K
54 | Cc1nc(-c2cccnc2)nc(NCC(O)c2ccsc2)c1C (stereo not shown) | -0.02 K
55 | COc1ccc(N(C)S(=O)(=O)c2cccc(C(=O)Nc3ccc4ccccc4c3)c2)cc1 | 0.82 K
56 | O=C(CCSc1ncccn1)Nc1c(Cl)cccc1Cl | -0.04 K
57 | Cc1c(F)cc(C(N)=O)cc1NC(=O)c1sc2nc(C3CC3)nc(C)c2c1C | 0.05 K
58 | c1ccc(N2CCN(c3cc(C4CC4)nc4ncnn34)CC2)cc1 | -0.15 K
59 | COc1cc(CN(C)C(=O)Cn2[nH]c(=O)c3ccccc3c2=O)ccc1OCc1ccccc1 | -0.12 K
60 | CCS(=O)CCNC(=O)c1nc2ccccc2c(=O)[nH]1 (stereo not shown) | -0.02 K
61 | O=C(c1ccccc1)N1CCN(C(=O)c2cccc3ccccc23)CC1 | -0.07 K

Exported as tab-separated lines: 2 of the compounds above.
Row	Structure (SMILES)	TSA(without NAD+) / Primary screening (TSA) / delta Tm (K)
30	Cc1cccc(NCCC#N)c1C	-0.32 K
31	C=CCNc1nnc(SCC(O)COC(c2ccccc2)c2ccccc2C)s1 (stereo not shown)	-0.18 K
